PubChem BioAssay AID1259405, NCATS – 2018
This is a random part of about 50,000 reagents tested. In the full data, about 4,000 (8%) are marked active. 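Mouse siRNA library applied to hamster cells; one well for each siRNA.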 Unmarked entries are inactive. The numbers tell different reagents against one gene apart.

- Purpose: 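Silenced genes that increase secreted GFP made by CHO cells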 (primary screen)
- System: Chinese hamster CHO-K1 ovary cells with stable secreted eGFP expression
- Reagent: single siRNA against mouse genes, 0.8 pmol siRNA per well (2 µl of 400 nM stock)
- Timing: 3 days
- Read-out: 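Per-well intracellular GFP measured by laser scanning cytometry, plus viability from ATP luminescence, each relative to plate median of non-targeting control wells, in %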
- Scale: GFP, % of control: higher = more GFP per well, higher productivity; viability (ATP), % of control: higher = more viable cells (more ATP)
- Rule for the call: 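a knock-down is called active if GFP reaches 120% or more of non-targeting control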

Mgst3 (microsomal glutathione S-transferase 3) #1: GFP, % of control = 119; viability (ATP), % of control = 81.6
Mgst3 (microsomal glutathione S-transferase 3) #2: GFP, % of control = 36; viability (ATP), % of control = 44.7
Mgst3 (microsomal glutathione S-transferase 3) #3: GFP, % of control = 99.5; viability (ATP), % of control = 103
Mtch2 #1: GFP, % of control = 84.4; viability (ATP), % of control = 76.1
Mtch2 #2: GFP, % of control = 69; viability (ATP), % of control = 52.1
Mtch2 #3: GFP, % of control = 101; viability (ATP), % of control = 90.3

Entries listed so far whose target name begins with M or m (6):
Mgst3 (microsomal glutathione S-transferase 3) #1: GFP, % of control = 119; viability (ATP), % of control = 81.6
Mgst3 (microsomal glutathione S-transferase 3) #2: GFP, % of control = 36; viability (ATP), % of control = 44.7
Mgst3 (microsomal glutathione S-transferase 3) #3: GFP, % of control = 99.5; viability (ATP), % of control = 103
Mtch2 #1: GFP, % of control = 84.4; viability (ATP), % of control = 76.1
Mtch2 #2: GFP, % of control = 69; viability (ATP), % of control = 52.1
Mtch2 #3: GFP, % of control = 101; viability (ATP), % of control = 90.3

Further entries:
Asb4 (ankyrin repeat and SOCS box-containing 4) #1: GFP, % of control = 101; viability (ATP), % of control = 70.4
Asb4 (ankyrin repeat and SOCS box-containing 4) #2: GFP, % of control = 89.2; viability (ATP), % of control = 80
Asb4 (ankyrin repeat and SOCS box-containing 4) #3: GFP, % of control = 112; viability (ATP), % of control = 93.5
Mup20 (major urinary protein 20) #1: GFP, % of control = 103; viability (ATP), % of control = 67.4
Mup20 (major urinary protein 20) #2: GFP, % of control = 77; viability (ATP), % of control = 57.8
Mup20 (major urinary protein 20) #3: GFP, % of control = 29.7; viability (ATP), % of control = 20.3
Cd19 (CD19 antigen) #1: GFP, % of control = 43.2; viability (ATP), % of control = 98.2
Cd19 (CD19 antigen) #2: GFP, % of control = 94.1; viability (ATP), % of control = 88.6
Cd19 (CD19 antigen) #3: GFP, % of control = 116; viability (ATP), % of control = 115
Tank (TRAF family member-associated Nf-kappa B activator) #1: GFP, % of control = 72.3; viability (ATP), % of control = 54.5
Tank (TRAF family member-associated Nf-kappa B activator) #2: GFP, % of control = 101; viability (ATP), % of control = 93.4
Tank (TRAF family member-associated Nf-kappa B activator) #3: GFP, % of control = 143 (active); viability (ATP), % of control = 92.6
